Values from PubChem BioAssay AID1259254 (NCATS, 2017)

- Aim: 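Gene knock-downs that lead to re-replication, shown by excess G2 DNA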 (primary screen)
- Cell system: human HCT116 colorectal cancer cells
- Reagent: single siRNA against human genes
- Time to read-out: 3 days
- Read-out: 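Imaged Hoechst DNA stain sorts each cell into a cycle phase by DNA amount; per plate, G2 fraction set to 0% for non-targeting and 100% for GMNN siRNA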
- Scale: G2 robust z-score and G2 cells, % of GMNN control: higher = more G2 cells, more excess DNA replication
- Call rule: 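An siRNA counts as active if its G2 robust z-score lies at least 5 MADs above the screen median; here such calls match roughly 38% of GMNN control or more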
This is a random part of about 59,000 deposited reagents. Of all reagents, about 1,550 (2.6%) got an active call. 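G2 share is only a proxy for re-replication; each gene was hit by three separate siRNAs, and active genes were retested.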 Entries without a mark were called inactive. The numbers tell different reagents against one gene apart. Further read-outs or replicates are left out here. The record does not give: the amount of reagent.

{"target": "MORN4 (MORN repeat containing 4)", "reagent": 1, "G2 robust z-score": 0.191, "G2 cells, % of GMNN control": 4.31}
{"target": "MORN4 (MORN repeat containing 4)", "reagent": 2, "G2 robust z-score": 3.94, "G2 cells, % of GMNN control": 30.7}
{"target": "MORN4 (MORN repeat containing 4)", "reagent": 3, "G2 robust z-score": -0.319, "G2 cells, % of GMNN control": 0.726}
{"target": "YDJC (YdjC chitooligosaccharide deacetylase homolog)", "reagent": 1, "G2 robust z-score": -0.312, "G2 cells, % of GMNN control": 0.771}
{"target": "YDJC (YdjC chitooligosaccharide deacetylase homolog)", "reagent": 2, "G2 robust z-score": -0.466, "G2 cells, % of GMNN control": -0.312}
{"target": "YDJC (YdjC chitooligosaccharide deacetylase homolog)", "reagent": 3, "G2 robust z-score": 1.1, "G2 cells, % of GMNN control": 10.7}
{"target": "NPSR1 (neuropeptide S receptor 1)", "reagent": 1, "G2 robust z-score": -0.627, "G2 cells, % of GMNN control": -1.44}
{"target": "NPSR1 (neuropeptide S receptor 1)", "reagent": 2, "G2 robust z-score": -0.0281, "G2 cells, % of GMNN control": 2.77}
{"target": "NPSR1 (neuropeptide S receptor 1)", "reagent": 3, "G2 robust z-score": "5.74 (active)", "G2 cells, % of GMNN control": 43.3}

Hits, among the entries above:
{"target": "NPSR1 (neuropeptide S receptor 1)", "reagent": 3, "G2 robust z-score": "5.74 (active)", "G2 cells, % of GMNN control": 43.3}

Continued.
{"target": "UCN2 (urocortin 2)", "reagent": 1, "G2 robust z-score": -0.0214, "G2 cells, % of GMNN control": 2.82}
{"target": "UCN2 (urocortin 2)", "reagent": 2, "G2 robust z-score": 0.252, "G2 cells, % of GMNN control": 4.74}
{"target": "UCN2 (urocortin 2)", "reagent": 3, "G2 robust z-score": -0.0278, "G2 cells, % of GMNN control": 2.77}
{"target": "ATP5MF (ATP synthase membrane subunit f)", "reagent": 1, "G2 robust z-score": 0.0108, "G2 cells, % of GMNN control": 3.04}
{"target": "ATP5MF (ATP synthase membrane subunit f)", "reagent": 2, "G2 robust z-score": -0.569, "G2 cells, % of GMNN control": -1.03}
{"target": "ATP5MF (ATP synthase membrane subunit f)", "reagent": 3, "G2 robust z-score": -0.404, "G2 cells, % of GMNN control": 0.123}
{"target": "BATF3 (basic leucine zipper ATF-like transcription factor 3)", "reagent": 1, "G2 robust z-score": -0.863, "G2 cells, % of GMNN control": -3.1}
{"target": "BATF3 (basic leucine zipper ATF-like transcription factor 3)", "reagent": 2, "G2 robust z-score": -0.396, "G2 cells, % of GMNN control": 0.179}
{"target": "BATF3 (basic leucine zipper ATF-like transcription factor 3)", "reagent": 3, "G2 robust z-score": 1.17, "G2 cells, % of GMNN control": 11.2}
